Data on one molecule can be found in doi:10.1101/780452.

Results are given in words; binding and its absence hold for the method and conditions named. Some binding calls cover weakened binding; strength is not graded here. Tags and fused reporters may be left off the sequences shown.

The experiment addresses BSA-Man (glycoprotein bearing 12 glycosylated sites) (bovine (from the name BSA)), P02769. Description: SPR. Conditions: remark: other sources report otherwise.

B1: DC-SIGN ECD (construct without StreptagII), Q9NNX6 59-404 (domain or fragment)
chain: QVSKVPSSISQEQSRQDAIYQNLTQLKAAVGELSEKSKLQEIYQELTQLKAAVGELPEKSKLQEIYQELTRLKAAVGELPEKSKLQEIYQELTWLKAAVGELPEKSKMQEIYQELTRLKAAVGELPEKSKQQEIYQELTRLKAAVGELPEKSKQQEIYQELTRLKAAVGELPEKSKQQEIYQELTQLKAAVERLCHPCPWEWTFFQGNCYFMSNSQRNWHDSITACKEVGAQLVVIKSAEEQNFLQLQSSRSNRFTWMGLSDLNQEGTWQWVDGSPLLPSFKQYWNRGEPNNVGEEDCAEFSGNGWNDDKCNLAKFWICKKSAASCSRDEEQFLSPAPATPNPPPA
modifications: here or on the partner: 12 glycosylated sites (mannose glycans, up to 12 glycans displayed)
For B1, the binding result is given as “binds”.
